# In all, about 360,000 compounds went through this assay and about 610 (0.17%) were called active. Inconclusive means that the source gave no clear call. Such entries were picked first, then a sample of the others. No stated cut-off is given here; in the data, active means inhibition above about 30%; inconclusive means no clear call, values can overlap the other calls; inactive means below that.
# Test system: Botulinum neurotoxin type A light chain protease (Clostridium botulinum A str. ATCC 3502)
# Assay: blockers of BoNT/A LC substrate cleavage – biochemical, flow cytometry, MLPCN library, primary screen (AID 588499); further: plate controls were buffer without enzyme for full effect and enzyme alone for no effect
# Conditions: multiplex microsphere protease substrate cleavage, at 10 µM, stronger effect = higher value
row,Structure (SMILES),inhibition
1,CCOc1ccccc1C1C(C#N)=C(N)Oc2cc(C)n(Cc3ccccn3)c(=O)c21 (stereo unspecified),inconclusive: -0.6%
2,COc1ccc2c(C(=O)CN3CCN(c4ccccc4)CC3)c[nH]c2c1,inconclusive: -1.3%
3,COc1cc(C(=O)NCc2ccc3c(c2)cc(C)n3C)cc(OC)c1OC,active: 74.1%
4,Cc1cc(Cl)ccc1Oc1nc(-c2ccc(F)cc2)ccc1C#N,inconclusive: -0.2%
5,O=C1Nc2ccccc2CN2C(=O)c3cc(Cl)ccc3NC(=O)C12 (stereo unspecified),inactive: -0.7%
6,Cn1nc(-c2ccccc2)cc1NC(=O)c1cccs1,inconclusive: 32.5%
7,C=CCn1c(O)c(N=NC(=S)Nc2cccc(C)c2)c2ccccc21,active: 30.3%
8,COCCNC(=O)c1cccc(OC2CCN(C(C)COc3ccccc3)CC2)c1 (stereo unspecified),inconclusive: 5.2%
9,Cc1nc2ccc(Cl)cc2nc1C,inconclusive: -3%
10,Cn1c(SCc2ccccc2)nnc1-c1cnccn1,inconclusive: 6.8%
11,O=c1[nH]n(-c2ccc(Cl)cc2)c(=O)c(Cl)c1Cl,inconclusive: -3.2%
12,CC1CC(=O)N(Cc2ccccc2)c2ccccc2N1C=O (stereo unspecified),inactive: 0.1%
13,CCOC(=O)c1ccc(NS(=O)(=O)c2ccc3[nH]c(=O)[nH]c3c2)cc1,inconclusive: -15.7%
14,CCN1CCN(c2ccc(S(=O)(=O)N3CCOCC3)cc2NC(=O)c2ccc(F)cc2Cl)CC1,inconclusive: 8%
15,CCOC(=O)c1c(-c2ccccc2)nc2ccccn12,inconclusive: -0.9%
16,Cc1ccc(NC2CC(C)NC(=S)N2)cc1 (stereo unspecified),inconclusive: 8.3%
17,FC(F)(Cl)c1nnc2ccc(Sc3ccccn3)nn12,inactive: 0.5%
18,CCCCCc1n[nH]c2c1CCCC2,inconclusive: 1.5%
19,Cc1ccccc1N1C(=O)c2cccc3cccc(c23)C1=O,inconclusive: -1.4%
20,O=C(O)CC(NC(=O)Cc1ccccc1)c1ccccc1 (stereo unspecified),inconclusive: -2%
21,COc1ccc(/C=C/C(=O)NC(=S)NNC(=O)c2cc(OC)c(OC)c(OC)c2)cc1,inconclusive: 17.3%
22,O=S(=O)(NCCOc1ccccc1)c1ccc2ccccc2c1,inconclusive: 3.3%
23,Cc1cc(N/N=C/c2ccncc2)c([N+](=O)[O-])cc1[N+](=O)[O-],inconclusive: 7.1%
24,CC1(C)Cc2c(sc3nc(-c4cc5ccccc5o4)n(N)c(=O)c23)CO1,inconclusive: 3.5%
25,Nc1c(S(=O)(=O)c2ccccc2)c2nc3ccccc3nc2n1Cc1ccco1,inconclusive: 1.6%
26,CC1=NN(c2ccccc2)C(=O)/C1=C/c1cn(C)c2ccccc12,inconclusive: -23.6%

# By substructure: those above containing an aryl methoxy group (3)
row,Structure (SMILES),inhibition
2,COc1ccc2c(C(=O)CN3CCN(c4ccccc4)CC3)c[nH]c2c1,inconclusive: -1.3%
3,COc1cc(C(=O)NCc2ccc3c(c2)cc(C)n3C)cc(OC)c1OC,active: 74.1%
21,COc1ccc(/C=C/C(=O)NC(=S)NNC(=O)c2cc(OC)c(OC)c(OC)c2)cc1,inconclusive: 17.3%
